Results are given in words; binding and its absence hold for the method and conditions named. In cells and extracts the contact can be indirect. Some results given as binding are weak or reduced against the parent protein; the word gives no strength.
Target: FLAG-FTO (human) (UniProt Q9C0B1)
Assay: co-IP; IP with anti-FLAG antibody from lysate of HEK293 cells expressing FLAG-FTO; lysates treated with Benzonase prior to IP; blot for endogenous ZBTB48

- binding: binds
B1: ZBTB48 (endogenous) (protein, UniProt P10074 1-688)
chain: MDGSFVQHSVRVLQELNKQREKGQYCDATLDVGGLVFKAHWSVLACCSHFFQSLYGDGSGGSVVLPAGFAEIFGLLLDFFYTGHLALTSGNRDQVLLAARELRVPEAVELCQSFKPKTSVGQAAGGQSGLGPPASQNVNSHVKEPAGLEEEEVSRTLGLVPRDQEPRGSHSPQRPQLHSPAQSEGPSSLCGKLKQALKPCPLEDKKPEDCKVPPRPLEAEGAQLQGGSNEWEVVVQVEDDGDGDYMSEPEAVLTRRKSNVIRKPCAAEPALSAGSLAAEPAENRKGTAVPVECPTCHKKFLSKYYLKVHNRKHTGEKPFECPKCGKCYFRKENLLEHEARNCMNRSEQVFTCSVCQETFRRRMELRVHMVSHTGEMPYKCSSCSQQFMQKKDLQSHMIKLHGAPKPHACPTCAKCFLSRTELQLHEAFKHRGEKLFVCEECGHRASSRNGLQMHIKAKHRNERPHVCEFCSHAFTQKANLNMHLRTHTGEKPFQCHLCGKTFRTQASLDKHNRTHTGERPFSCEFCEQRFTEKGPLLRHVASRHQEGRPHFCQICGKTFKAVEQLRVHVRRHKGVRKFECTECGYKFTRQAHLRRHMEIHDRVENYNPRQRKLRNLIIEDEKMVVVALQPPAELEVGSAEVIVESLAQGGLASQLPGQRLCAEESFTGPGVLEPSLIITAAVPEDCDT
